This test concerns the target T1, TAT-labeled WT α5-integrin peptide (PPATSDA).
T1 sequence (peptide): PPATSDA
As to the kind of experiment: ELISA; amine surface stripwell plate coated with 4 µM TAT-labeled α5 peptide in 0.1 mM NaCO3 (pH 9.6), 3 h at 4°C; blocked with 2% BSA in TBST; 1 µg recombinant GST protein in blocking buffer for 1 h; detected with rabbit anti-GST and HRP anti-rabbit antibody; both purified. (ELISA stands for enzyme-linked immunosorbent assay.)

No constants are given. Whether binding was seen depends on the method and setting. Binding can be weak; no strength is given.

“GST-ZO-1 PDZ1-3 (WT) (domain or fragment)”: the binding result is given as “binds”.

These data come from paper PMC3742740.
